Experimental data as given in patent US10907159B2, “Methods of treating cancer by inhibition of DNA repair proteins using antisense based therapies” (SARISSA INC., priority 2015, dated 2021).
Some results were stated once for a whole list of compounds, not compound by compound.

Test system: A549b cells
Assay type: cell-based, human
Conditions: A549 cells; for enhanced inhibition of proliferation by cisplatin (% decrease in the IC50 value): ASO pre-treatment, FIG. 39
Experimental: OLIGOs were introduced into cells with the use of Lipofectamine 2000 (LFA2K) (Invitrogen, Burlington, Ontario, Canada). OLIGOs were mixed with LFA2K at a ratio of 0.2 μg/ml per 10 nM OLIGO. The mixture was prepared at 11× the final concentration to which cells were exposed, so that 200 μL was added to 2 mL of medium in which cells were plated. After incubating at room temperature for 20 minutes, according to manufacturer's instructions, the OLIGOs were added to the cell medium. The OLIGO/LFA2K mix was then incubated (37° C.) on the cells for 4 hours, after which a second volume of medium was added. Cells were then incubated for 20 hours. Following this incubation, the OLIGO-containing medium was replaced with OLIGO-free medium.
For cells treated with the drug olaparib, for the purposes of determining whether inhibitory activity was enhanced by the OLIGO pretreatment, olaparib was added at this time, in concentrations of from 0.01 μM to 3 μM. At this point, replicate flasks from the OLIGO-treatment were used to enumerate cell content, as this varied among treatments over the initial 24-hour exposure. […] Following a further 4-day incubation, the proliferation of the treated cells (fold-increase in cell number) was calculated as a percentage of that of control cells. […] As indicated in Example 1, for the purpose of determining the anti-proliferative effect of antisense OLIGOs alone, the proliferation of cells treated with antisense OLIGOs was calculated as a percent of that of cells treated with an equivalent concentration of non-complementary control OLIGO (in this case OLIGO 32). However, for the purpose of determining the anti-proliferative effect of olaparib against antisense or non-complementary (control) OLIGO-treated cells, the proliferation was calculated as a percent of cells treated with the respective OLIGO. […]
Cisplatin was added to the final concentration indicated, and as described in Example 3. Cells were incubated for 4 days, at which time cell number was counted. Proliferation was calculated as a percent of siRNA-treated, non-cisplatin-treated controls.

Substance	enhanced inhibition of proliferation by cisplatin (% decrease in the IC50 value)	enhanced inhibition of proliferation by olaparib (% decrease in the IC50 value) (ASO pre-incubation, FIGS. 34, 35)
5′-guaucuCTTGACGTuccuua-3′ (GUAUCUCTTGACGTUCCUUA; gapmer, lower-case wings modified, type not given here) [BR1]	up to 85%	–
5′-ugcccgATACACAAacgcug -3′ (UGCCCGATACACAAACGCUG; gapmer, lower-case wings modified, type not given here) [BR3]	up to 85%	up to 95%
